The results in this text go back to patent US8821862B2, “Soluble β-N-acetylglucosaminidase based antibiofilm compositions and uses thereof” (Kane Biotech Inc., priority 2002, dated 2014).

Structures are written as SMILES.

The assay concerns A. actinomycetemcomitans planktonic cells. The following applies: CPC 0.02%.

`CCCCCCCCCCCCCCCC[n+]1ccccc1` [CPC, cetylpyridinium chloride]: the “0.02% CPC as multiple of the MIC against planktonic cells” value is on record as 10 times the MIC.
